{
  "source": "patent US9808511B2",
  "about": "“Method for treating alopecia with B-type natriuretic peptide” (IGISU Co., Ltd., priority 2011, dated 2017)",
  "system": "alopecia",
  "experiment": "Conclusions from case test results (all types of alopecia)",
  "type": "in vivo, human",
  "settings": "agent containing the peptide as an active ingredient; external application",
  "experimental": "The test subjects were patients with alopecia areata, androgenetic alopecia, postpartum alopecia, female pattern alopecia, alopecia pityroides, and senile alopecia. Diagnosis and treatment of these test subjects were carried out by the present inventors as physicians.\nIn general, in order to confirm the effect of an external medicine in an individual case, a method involving separate left and right applications is desirable. The separate left and right application method is a method in which, for example, an external medicine containing an active ingredient to be tested is applied to the left-hand side of an affected site, and an external medicine not containing the active ingredient is applied to the right-hand side, thus enabling a therapeutic effect to be confirmed. With regard to the test of the preparation of the present invention, a preparatory test was carried out in accordance with the separate left and right applications method. However, taking into consideration medical ethics, the preparatory test in accordance with the separate left and right applications method was minimized, and when a preparatory test was not carried out, a therapeutic effect was evaluated by comparison between that before application and that after application.\nIn order to carry out evaluation objectively, photographs before and after application of the NP preparation were recorded in all cases. […]",
  "note": "Entries after “also recorded” stand apart in the source; their conditions may differ. At least one peptide structure holds a part that was inferred or is arguable (an end, a ring closure or a residue).",
  "data": [
    {"smiles": "CC[C@H](C)[C@@H]1NC(=O)[C@H](CCCNC(=N)N)NC(=O)[C@H](CC(=O)O)NC(=O)[C@H](CCSC)NC(=O)[C@H](CCCCN)NC(=O)[C@H](CCCNC(=N)N)NC(=O)CNC(=O)[C@H](Cc2ccccc2)NC(=O)[C@@H](NC(=O)CNC(=O)[C@H](CO)NC(=O)CNC(=O)[C@H](CCC(N)=O)NC(=O)[C@@H](NC(=O)[C@H](CCSC)NC(=O)[C@H](CCCCN)NC(=O)[C@@H]2CCCN2C(=O)[C@@H](N)CO)C(C)C)CSSC[C@@H](C(=O)N[C@@H](CCCCN)C(=O)N[C@H](C(=O)N[C@@H](CC(C)C)C(=O)N[C@@H](CCCNC(=N)N)C(=O)N[C@@H](CCCNC(=N)N)C(=O)N[C@@H](Cc2c[nH]cn2)C(=O)O)C(C)C)NC(=O)CNC(=O)[C@H](CC(C)C)NC(=O)CNC(=O)[C@H](CO)NC(=O)[C@H](CO)NC(=O)[C@H](CO)NC(=O)[C@H](CO)NC1=O", "note": "[BNP, human BNP-32]", "values": [
      {"measurement": "Therapeutic effect, conclusions from case test results", "result": "hair grew almost certainly with application twice a day for 1 week; also recorded: characterized by black terminal hair often growing"}
    ]}
  ]
}
